Measurements from patent publication US20210032257A1, “(E)-1-(4-(DIMETHYLAMINO)BUT-2-ENOYL)PYRROLIDIN-3-YL 4-((3-ISOPROPYL-5-METHYLPYRAZOLO[1,5-A]PYRIMIDIN-7-YL)AMINO)PIPERIDINE-1-CARBOXYLATE FOR INHIBITING CDK7” (Eli Lilly and Company, priority 2017, published 2021).

Experiments:
Assay in all cases: Biomarker study: distribution of anti-proliferation effects
Format in all cases: cell-based
[1] = test system: KMT2C mutants cancer cell lines
Method: (§1) Cancer cell lines are profiled to evaluate the anti-proliferative activity of a test compound in-vitro. Mutation, copy number and gene expression information of ARID1A, KMT2C, KMT2D and/or RB1 genes across cancer cell lines is obtained from COSMIC database (cancer.sanger.ac.uk) and cBioportal (http://www.cbioportal.org/). Cells are cultured in growth medium and plated into a 96-well plate in 100 μL/well growth medium at 5000 cells/well then incubated at 37° C., 5% CO2 overnight. Cells are cultured using supplier recommended media and conditions well known in the art, for example with RPMI 1640 with or without HEPES & L-Glutamine (Thermo SH30255.01) and 1 mM Sodium Pyruvate, and 10% FBS(Gibco cat #10082). The 1000× intermediate dilution plate is prepared by making a 10 mM working solution of a test sample in DMSO and performing 1:3 dilutions in DMSO for 10 points. The 10× dosing plate is prepared by adding 2 μL from the 1000× intermediate dilution plate to 198 μL of OPTIMEM®+10% FBS and mixing well. The cell plate is then treated by adding 11 μL from the 10× dosing plate into the 100 μL/well cell plate for a 1× final concentration. Staurosporine is used as a maximum growth inhibition control at a final concentration of 5 μM. The cell plate is incubated for 7 days at 37° C., 5% CO2. Seven days after treatment, Cell Titer-Glo® (Promega cat #G7571) assay buffer and substrate are removed from −20° C. and allowed to equilibrate to RT. Assay buffer is added to the substrate and swirled gently to mix. The CELL TITER-GLO® reagent (100 μL/well) is added to the cell plate and incubated at RT for 15 minutes. After 15 minutes, luminescence is read using a plate reader. Data is analyzed in Excel and graphed in GraphPad Prism. Statistical analysis and p value is calculated using Mann-Whitney nonparameteric t tests using GraphPad Prism.
(§2) Anti-proliferative effects of a test compound are categorized as insensitive (IC50≥1 μM), cytostatic (IC50<1 μM and % inhibition <70%) or cytotoxic (IC50<1 μM and % inhibition ≥70%).

[2] = test system: RB1 mutants cancer cell lines
Method: as §1, §2

[3] = test system: KMT2D mutants cancer cell lines
Method: as §1, §2

[4] = test system: Others (cancer cell lines)
Method: as §1, §2

[5] = test system: ARID1A mutants cancer cell lines
Method: as §1, §2

Structure (SMILES): Cc1cc(NC2CCN(C(=O)O[C@H]3CCN(C(=O)/C=C/CN(C)C)C3)CC2)n2ncc(C(C)C)c2n1 [Example 1, [(3S)-1-[(E)-4-(dimethylamino)but-2-enoyl]pyrrolidin-3-yl] 4-[(3-isopropyl-5-methyl-pyrazolo[1,5-a]pyrimidin-7-yl)amino]piperidine-1-carboxylate]
- Distribution (%) of anti-proliferation effects: Cytostatic (IC50 <1 μM, % Inh. <70) [1]: 20%, n = 2
- Distribution (%) of anti-proliferation effects: Insensitive (lC50 ≥1 μM, % Inh. <70) [1]: 10%, n = 1
- Distribution (%) of anti-proliferation effects: Cytostatic (IC50 <1 μM, % Inh. <70) [2]: 37%, n = 15
- Distribution (%) of anti-proliferation effects: Insensitive (lC50 ≥1 μM, % Inh. <70) [2]: 10%, n = 4
- Distribution (%) of anti-proliferation effects: Cytostatic (IC50 <1 μM, % Inh. <70) [3]: 12%, n = 3
- Distribution (%) of anti-proliferation effects: Insensitive (lC50 ≥1 μM, % Inh. <70) [3]: 12%, n = 3
- Distribution (%) of anti-proliferation effects: Cytostatic (IC50 <1 μM, % Inh. <70) [4]: 44%, n = 45
- Distribution (%) of anti-proliferation effects: Insensitive (lC50 ≥1 μM, % Inh. <70) [4]: 17%, n = 17
- Distribution (%) of anti-proliferation effects: Cytostatic (IC50 <1 μM, % Inh. <70) [5]: 23%, n = 9
- Distribution (%) of anti-proliferation effects: Insensitive (lC50 ≥1 μM, % Inh. <70) [5]: 13%, n = 5
